Values from PubChem BioAssay AID686937 (Drosophila RNAi Screening Center, 2013).
Aim: 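Genes whose loss weakens secretory pathway function in fly cells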 (primary screen). Cell system: Drosophila S2 cells expressing secreted horseradish peroxidase. Reagents: long dsRNA against Drosophila genes. Timing: about 5.5 days (5 days dsRNA, then 12 h reporter induction). Challenge: reporter expression induced after 5 days of dsRNA, read 12 h later; inducer not stated. Detection: 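Chemiluminescent measurement of peroxidase in the medium 12 h after reporter induction, following 5 days of dsRNA, given as a z-score per plate; higher means more secretion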. Scale: z-score: higher = more reporter secreted into medium.
The screen tested about 23,000 reagents; shown is an unselected part of those that have a named target and a result. 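Reduced-secretion tags in replicate 1 do not always agree with the z-scores; no criterion for assigning the tags was given.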 Reagents against one gene are numbered here. A plus sign joins genes that one reagent is predicted to hit. Further read-outs or replicates are left out here. Not stated in the record: the amount of reagent.

{"target":"CG15370","reagent":1,"z-score, replicate 1":0.3}
{"target":"Or33c","reagent":1,"z-score, replicate 1":0.5}
{"target":"CG42748","reagent":1,"z-score, replicate 1":-0.06}
{"target":"CG42748","reagent":2,"z-score, replicate 1":0.44}
{"target":"CG42748","reagent":3,"z-score, replicate 1":-0.07}
{"target":"CG9555","reagent":1,"z-score, replicate 1":0.32}
{"target":"yellow-b","reagent":1,"z-score, replicate 1":0.24}
{"target":"CG1902","reagent":1,"z-score, replicate 1":0.11}
{"target":"CG8191 + CG12379","reagent":1,"z-score, replicate 1":0.33}
{"target":"CG11878","reagent":1,"z-score, replicate 1":0.3}
{"target":"CG12398","reagent":1,"z-score, replicate 1":-0.29}
{"target":"CG12498","reagent":1,"z-score, replicate 1":0.32}
{"target":"Gr10b","reagent":1,"z-score, replicate 1":0.28}
{"target":"apn","reagent":1,"z-score, replicate 1":0.35}
{"target":"Pcd","reagent":1,"z-score, replicate 1":0.18}
{"target":"senju","reagent":1,"z-score, replicate 1":-0.01}
{"target":"CG8086","reagent":1,"z-score, replicate 1":0.24}
{"target":"CG8086","reagent":2,"z-score, replicate 1":0.26}
{"target":"asRNA:CR30267","reagent":1,"z-score, replicate 1":0.12}
{"target":"RpS14b","reagent":1,"z-score, replicate 1":-2.52,"phenotype, replicate 1":"reduced secretion"}
{"target":"CG31102","reagent":1,"z-score, replicate 1":0.28}
{"target":"CG15445","reagent":1,"z-score, replicate 1":-0.09}
{"target":"p38b","reagent":1,"z-score, replicate 1":-0.08}
{"target":"GatB","reagent":1,"z-score, replicate 1":0.4}
{"target":"CG9150","reagent":1,"z-score, replicate 1":0.22}
{"target":"CG16894","reagent":1,"z-score, replicate 1":0.29}
{"target":"CG16894","reagent":2,"z-score, replicate 1":1.17}
{"target":"CG12115","reagent":1,"z-score, replicate 1":0.47}
{"target":"CG30076","reagent":1,"z-score, replicate 1":-1.15}
{"target":"Als2","reagent":1,"z-score, replicate 1":0.21}
{"target":"CG30268","reagent":1,"z-score, replicate 1":0.71}
{"target":"PIP5K59B","reagent":1,"z-score, replicate 1":0.5}
{"target":"PIP5K59B","reagent":2,"z-score, replicate 1":0.53}
{"target":"CG18284","reagent":1,"z-score, replicate 1":0.06}
{"target":"CG18284","reagent":2,"z-score, replicate 1":0.23}
{"target":"row","reagent":1,"z-score, replicate 1":0.43}
{"target":"row","reagent":2,"z-score, replicate 1":-0.89}
{"target":"Gpxl","reagent":1,"z-score, replicate 1":0.43}
{"target":"TrpRS","reagent":1,"z-score, replicate 1":0.02}
{"target":"CG10970","reagent":1,"z-score, replicate 1":0.49}
{"target":"RpS20","reagent":1,"z-score, replicate 1":-3.05,"phenotype, replicate 1":"reduced secretion"}
{"target":"CG14505","reagent":1,"z-score, replicate 1":0.38}
{"target":"Kap-alpha1","reagent":1,"z-score, replicate 1":-0.11}
{"target":"CG18596","reagent":1,"z-score, replicate 1":0.15}
{"target":"CG18324","reagent":1,"z-score, replicate 1":0.29}
{"target":"CG14613","reagent":1,"z-score, replicate 1":0.35}
{"target":"CR40354","reagent":1,"z-score, replicate 1":-0.97}
{"target":"CG8673","reagent":1,"z-score, replicate 1":0.26}
{"target":"CG5758","reagent":1,"z-score, replicate 1":0.26}
{"target":"CG5758","reagent":2,"z-score, replicate 1":-0.47}
{"target":"timeout","reagent":1,"z-score, replicate 1":0.19}
{"target":"timeout","reagent":2,"z-score, replicate 1":0.43}
{"target":"timeout","reagent":3,"z-score, replicate 1":0.31}
{"target":"timeout","reagent":4,"z-score, replicate 1":0.45}
{"target":"timeout","reagent":5,"z-score, replicate 1":0.34}
{"target":"timeout","reagent":6,"z-score, replicate 1":0.15}

Individual results from the entries so far.
Value for CG18596 in “z-score, replicate 1”: 0.15
Value of Or33c in “z-score, replicate 1”: 0.5
For “z-score, replicate 1”, Gr10b reads 0.28
Under “z-score, replicate 1”, CG15445 has -0.09
Result of p38b under “z-score, replicate 1”: -0.08
CG42748 #1, z-score, replicate 1: -0.06
